From publication PMC4130924 (Protein & Cell, 2014) come the findings set out here.

The chains behind the UniProt entries cited, without tags or fusion partners. Where a name states a change or a piece, a line headed by the entry shows the natural chain unless it says otherwise. Residues count along the entry.
UniProt Q9Y5K5, residues 1-255: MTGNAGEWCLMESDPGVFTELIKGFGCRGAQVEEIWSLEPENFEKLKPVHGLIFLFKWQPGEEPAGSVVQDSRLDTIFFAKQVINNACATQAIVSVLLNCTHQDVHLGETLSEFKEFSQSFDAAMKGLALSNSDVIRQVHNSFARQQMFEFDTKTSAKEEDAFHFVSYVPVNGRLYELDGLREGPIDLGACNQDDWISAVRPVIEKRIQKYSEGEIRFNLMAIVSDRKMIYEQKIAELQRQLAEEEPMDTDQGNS

This assay addresses Uch37Δ^Hb,Hc,KEKE (human) (UniProt Q9Y5K5). Description: SEC; approximately 10 mg/mL loaded (Table 1: 10.0 for Uch37; >7.0, >4.0, >1.5 for the truncations) on a 120-mL Superdex G200 column; 20 mmol/L Tris-HCl pH 8.0, 200 mmol/L NaCl, 2 mmol/L DTT; MW from a standard curve; both purified.

Results are given in words; binding and its absence hold for the method and conditions named.

For “Uch37Δ^Hb,Hc,KEKE (from UniProt Q9Y5K5 1-255) (domain or fragment)”, the binding entry was “no binding (tested: >7.0 mg/mL)”.
